Literature values, collected in patent publication US9173836B2, “Pharmaceutical preparations for treatments of diseases and disorders of the breast” (FemmeParma Holding Company, Inc., priority 2003, dated 2015).
For at least one compound, name, drawing or mass did not settle the structure.

Test system: women treated for cyclical mastalgia
Details: in vivo; cited from earlier work

For CC(C)C[C@H]1C(=O)N2CCC[C@H]2[C@]2(O)O[C@](NC(=O)[C@@H]3C=C4c5cccc6[nH]c(Br)c(c56)C[C@H]4N(C)C3)(C(C)C)C(=O)N12 [Bromocriptine], the “Response in patients with non-cyclical breast pain” value is listed as “did not induce a response”.
